Data as given in patent US8921362B2, “6,7-dialkoxy quinazoline derivatives and methods of treating drug resistant and other tumors” (Natco Pharma Limited, priority 2008, dated 2014).
At least one structure is not confirmed: it was looked up by name or label, or the drawing left a doubt.

Protein sequences, listed by entry. Tags and fused reporters are not part of them. Lines headed by an entry give the natural chain unless they say otherwise; changes in a name come on top. Residues count along the entry.
UniProt P53671: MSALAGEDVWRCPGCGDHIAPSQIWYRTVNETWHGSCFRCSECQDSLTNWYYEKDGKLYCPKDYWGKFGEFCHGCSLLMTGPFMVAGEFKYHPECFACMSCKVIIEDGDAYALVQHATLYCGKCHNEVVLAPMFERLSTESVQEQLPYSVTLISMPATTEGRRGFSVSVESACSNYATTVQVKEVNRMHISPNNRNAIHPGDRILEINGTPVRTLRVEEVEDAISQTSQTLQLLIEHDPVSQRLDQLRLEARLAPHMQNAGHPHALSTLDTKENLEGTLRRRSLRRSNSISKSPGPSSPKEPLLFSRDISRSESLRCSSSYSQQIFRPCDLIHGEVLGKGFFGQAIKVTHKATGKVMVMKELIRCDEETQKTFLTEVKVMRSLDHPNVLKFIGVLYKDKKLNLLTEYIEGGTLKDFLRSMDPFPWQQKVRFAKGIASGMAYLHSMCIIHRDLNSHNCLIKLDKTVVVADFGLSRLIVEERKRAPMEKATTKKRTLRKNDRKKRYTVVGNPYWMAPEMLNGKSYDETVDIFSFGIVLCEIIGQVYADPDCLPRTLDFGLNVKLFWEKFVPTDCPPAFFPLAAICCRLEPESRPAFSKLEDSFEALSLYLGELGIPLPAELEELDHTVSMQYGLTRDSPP
UniProt P43403: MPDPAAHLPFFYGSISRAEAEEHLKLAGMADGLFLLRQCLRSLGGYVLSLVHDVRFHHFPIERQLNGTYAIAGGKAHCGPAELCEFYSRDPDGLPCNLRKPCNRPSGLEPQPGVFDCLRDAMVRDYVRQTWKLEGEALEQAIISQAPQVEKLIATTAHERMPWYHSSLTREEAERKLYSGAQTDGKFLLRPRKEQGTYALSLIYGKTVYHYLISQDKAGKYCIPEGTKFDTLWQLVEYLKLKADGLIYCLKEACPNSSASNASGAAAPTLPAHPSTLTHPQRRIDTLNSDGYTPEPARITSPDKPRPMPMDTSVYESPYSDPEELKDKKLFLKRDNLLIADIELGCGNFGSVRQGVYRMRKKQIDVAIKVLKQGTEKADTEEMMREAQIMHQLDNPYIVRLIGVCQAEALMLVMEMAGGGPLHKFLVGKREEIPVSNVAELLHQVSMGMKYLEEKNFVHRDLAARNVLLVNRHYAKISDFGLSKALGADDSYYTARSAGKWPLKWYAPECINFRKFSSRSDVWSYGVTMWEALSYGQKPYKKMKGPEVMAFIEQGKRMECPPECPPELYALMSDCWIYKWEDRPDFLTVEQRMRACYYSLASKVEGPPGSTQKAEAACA
UniProt O75716, whole entry: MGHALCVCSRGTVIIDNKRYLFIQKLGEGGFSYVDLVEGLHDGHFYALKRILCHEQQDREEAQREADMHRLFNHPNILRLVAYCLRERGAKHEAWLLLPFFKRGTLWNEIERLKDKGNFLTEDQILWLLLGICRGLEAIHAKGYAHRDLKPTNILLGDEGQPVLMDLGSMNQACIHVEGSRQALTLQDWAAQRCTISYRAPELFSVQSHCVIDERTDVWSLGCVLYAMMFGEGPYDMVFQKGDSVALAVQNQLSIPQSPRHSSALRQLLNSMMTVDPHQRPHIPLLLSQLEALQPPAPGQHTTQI
UniProt P49841: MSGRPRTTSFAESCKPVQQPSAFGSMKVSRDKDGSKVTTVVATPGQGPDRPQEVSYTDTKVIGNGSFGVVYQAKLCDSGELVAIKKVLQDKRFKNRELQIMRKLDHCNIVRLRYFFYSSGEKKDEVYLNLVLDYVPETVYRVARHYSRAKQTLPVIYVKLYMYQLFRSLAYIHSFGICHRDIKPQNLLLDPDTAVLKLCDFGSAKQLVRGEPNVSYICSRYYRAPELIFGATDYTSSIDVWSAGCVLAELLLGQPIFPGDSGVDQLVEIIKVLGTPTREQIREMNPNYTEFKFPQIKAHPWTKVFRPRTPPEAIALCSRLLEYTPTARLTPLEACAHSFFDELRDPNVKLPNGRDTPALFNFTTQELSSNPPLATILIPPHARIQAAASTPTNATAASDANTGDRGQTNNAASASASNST
UniProt Q9H3Y6: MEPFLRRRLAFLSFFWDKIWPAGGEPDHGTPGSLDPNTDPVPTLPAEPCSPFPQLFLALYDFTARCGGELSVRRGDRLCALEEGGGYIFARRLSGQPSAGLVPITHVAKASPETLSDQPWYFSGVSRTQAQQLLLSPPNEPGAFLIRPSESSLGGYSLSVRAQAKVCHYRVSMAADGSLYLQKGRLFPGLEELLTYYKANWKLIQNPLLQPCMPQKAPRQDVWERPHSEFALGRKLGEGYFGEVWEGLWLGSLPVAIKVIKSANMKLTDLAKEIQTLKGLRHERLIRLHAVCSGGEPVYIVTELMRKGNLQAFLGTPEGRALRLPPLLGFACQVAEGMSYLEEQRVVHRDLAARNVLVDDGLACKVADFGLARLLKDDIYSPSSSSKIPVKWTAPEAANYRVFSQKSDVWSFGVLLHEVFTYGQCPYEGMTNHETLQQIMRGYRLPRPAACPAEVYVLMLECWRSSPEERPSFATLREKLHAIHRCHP
UniProt O15146, 24-869: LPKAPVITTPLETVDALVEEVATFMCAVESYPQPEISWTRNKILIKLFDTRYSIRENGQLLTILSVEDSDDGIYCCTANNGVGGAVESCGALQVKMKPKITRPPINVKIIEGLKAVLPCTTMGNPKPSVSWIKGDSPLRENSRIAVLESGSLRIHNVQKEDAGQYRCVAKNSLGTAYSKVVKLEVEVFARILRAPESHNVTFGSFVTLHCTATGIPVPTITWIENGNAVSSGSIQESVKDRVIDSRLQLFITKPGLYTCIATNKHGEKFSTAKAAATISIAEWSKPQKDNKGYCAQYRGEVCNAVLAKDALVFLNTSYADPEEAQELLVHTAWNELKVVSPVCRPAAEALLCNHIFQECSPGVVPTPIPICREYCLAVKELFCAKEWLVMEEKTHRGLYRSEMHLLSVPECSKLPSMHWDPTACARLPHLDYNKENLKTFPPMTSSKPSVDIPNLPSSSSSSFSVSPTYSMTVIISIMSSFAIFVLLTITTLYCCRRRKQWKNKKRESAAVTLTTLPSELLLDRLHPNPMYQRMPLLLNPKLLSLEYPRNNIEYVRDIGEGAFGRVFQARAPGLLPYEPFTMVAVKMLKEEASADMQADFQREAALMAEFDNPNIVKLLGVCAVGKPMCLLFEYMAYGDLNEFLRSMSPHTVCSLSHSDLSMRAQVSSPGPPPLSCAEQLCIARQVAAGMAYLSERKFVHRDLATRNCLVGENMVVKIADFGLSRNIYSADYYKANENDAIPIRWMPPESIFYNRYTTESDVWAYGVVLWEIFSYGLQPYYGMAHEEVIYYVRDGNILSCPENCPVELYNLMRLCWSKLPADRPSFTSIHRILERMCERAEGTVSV
UniProt P31749: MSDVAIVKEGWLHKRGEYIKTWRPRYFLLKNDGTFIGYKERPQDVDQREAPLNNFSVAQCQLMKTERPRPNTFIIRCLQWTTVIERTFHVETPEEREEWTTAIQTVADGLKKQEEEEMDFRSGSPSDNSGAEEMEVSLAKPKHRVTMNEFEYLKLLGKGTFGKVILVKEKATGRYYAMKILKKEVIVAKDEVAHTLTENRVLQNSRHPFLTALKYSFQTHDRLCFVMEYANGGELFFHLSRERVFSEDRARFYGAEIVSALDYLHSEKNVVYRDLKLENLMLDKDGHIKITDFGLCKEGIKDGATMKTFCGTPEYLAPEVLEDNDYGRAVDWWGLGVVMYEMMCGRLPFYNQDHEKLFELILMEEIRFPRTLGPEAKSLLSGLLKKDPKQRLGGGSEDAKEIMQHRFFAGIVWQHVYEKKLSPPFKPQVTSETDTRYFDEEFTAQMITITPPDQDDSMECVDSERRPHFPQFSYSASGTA
UniProt P36894, 24-532: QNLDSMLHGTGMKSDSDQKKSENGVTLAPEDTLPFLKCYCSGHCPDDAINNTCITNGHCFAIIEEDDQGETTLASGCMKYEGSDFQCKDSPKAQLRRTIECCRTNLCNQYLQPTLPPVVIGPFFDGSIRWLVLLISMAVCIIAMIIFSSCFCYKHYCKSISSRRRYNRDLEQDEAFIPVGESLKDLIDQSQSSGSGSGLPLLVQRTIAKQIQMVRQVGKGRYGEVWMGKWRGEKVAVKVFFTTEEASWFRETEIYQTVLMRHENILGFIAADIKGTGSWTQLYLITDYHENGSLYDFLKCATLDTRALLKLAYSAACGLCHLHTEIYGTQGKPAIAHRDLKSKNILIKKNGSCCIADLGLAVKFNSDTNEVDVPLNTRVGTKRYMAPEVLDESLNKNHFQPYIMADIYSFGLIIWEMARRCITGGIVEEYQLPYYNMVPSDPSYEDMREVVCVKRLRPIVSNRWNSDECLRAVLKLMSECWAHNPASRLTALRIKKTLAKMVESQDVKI
UniProt P42336, whole entry: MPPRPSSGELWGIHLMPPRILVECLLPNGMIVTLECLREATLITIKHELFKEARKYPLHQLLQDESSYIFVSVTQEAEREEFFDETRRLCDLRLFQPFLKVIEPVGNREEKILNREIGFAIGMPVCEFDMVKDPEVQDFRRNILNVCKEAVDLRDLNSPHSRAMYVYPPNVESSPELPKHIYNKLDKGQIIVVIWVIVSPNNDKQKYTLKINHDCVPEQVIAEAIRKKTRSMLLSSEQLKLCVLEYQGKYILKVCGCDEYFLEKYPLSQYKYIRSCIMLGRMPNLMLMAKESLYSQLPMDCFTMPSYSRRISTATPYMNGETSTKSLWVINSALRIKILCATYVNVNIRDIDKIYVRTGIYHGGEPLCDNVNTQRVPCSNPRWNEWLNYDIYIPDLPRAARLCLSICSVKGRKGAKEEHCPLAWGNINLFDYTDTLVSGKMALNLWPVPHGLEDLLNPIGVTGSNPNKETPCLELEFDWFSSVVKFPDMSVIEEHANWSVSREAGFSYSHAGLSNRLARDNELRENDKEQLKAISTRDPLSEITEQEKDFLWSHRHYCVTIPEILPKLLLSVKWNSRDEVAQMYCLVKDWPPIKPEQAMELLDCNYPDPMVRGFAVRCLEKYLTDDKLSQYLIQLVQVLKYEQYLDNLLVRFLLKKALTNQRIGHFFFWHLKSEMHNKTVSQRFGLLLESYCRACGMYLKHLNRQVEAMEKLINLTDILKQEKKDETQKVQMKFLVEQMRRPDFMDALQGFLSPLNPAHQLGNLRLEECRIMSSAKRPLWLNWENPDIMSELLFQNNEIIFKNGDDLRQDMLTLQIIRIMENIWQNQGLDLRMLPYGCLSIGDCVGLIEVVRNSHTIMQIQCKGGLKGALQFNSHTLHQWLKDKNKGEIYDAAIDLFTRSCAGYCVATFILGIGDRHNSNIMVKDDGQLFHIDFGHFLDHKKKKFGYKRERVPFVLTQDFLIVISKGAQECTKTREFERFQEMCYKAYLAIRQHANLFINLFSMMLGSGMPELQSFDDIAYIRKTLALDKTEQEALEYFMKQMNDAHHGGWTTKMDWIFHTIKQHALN
UniProt P51817: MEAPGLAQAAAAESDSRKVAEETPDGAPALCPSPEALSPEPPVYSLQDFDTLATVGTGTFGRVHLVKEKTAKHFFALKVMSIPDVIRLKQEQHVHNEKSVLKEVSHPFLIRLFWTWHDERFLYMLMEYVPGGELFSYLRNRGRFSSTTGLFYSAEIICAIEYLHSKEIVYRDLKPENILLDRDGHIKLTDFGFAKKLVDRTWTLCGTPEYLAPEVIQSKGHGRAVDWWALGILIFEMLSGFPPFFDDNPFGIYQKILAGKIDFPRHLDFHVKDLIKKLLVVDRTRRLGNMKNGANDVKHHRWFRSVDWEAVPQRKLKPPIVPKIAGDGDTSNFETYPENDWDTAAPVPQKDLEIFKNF

Legend:
H1975 cells = test: Erlotinib/Gefitinib resistant NSCLC xenografts; type: in vivo, athymic nude mice; settings: FIG. 12
FLT3(ITD) = test: KinomeScan; type: binding
[1] = tested on: pancreatic cancer cells MIA PaCa-2; test: Pancreatic cancer xenografts; type: in vivo, Athymic nude mice
A549 human lung tumors = test: Subcutaneous lung tumors in nude mice; type: in vivo
Excerpt: Nude mice were implanted with 2×10^6 A549 cells in the right hind limb flank.

[2] = tested on: A549 luciferase expressing cells; test: Nude mice implanted with A549 luciferase expressing cells; type: in vivo; settings: oral and ip routes, FIGS. 6 & 7
YANK = test: KinomeScan; type: binding; parameters: key: most active is indicated as (++); very little inhibiting effect is indicated as (−−)
LIMK2 = target: T1, LIMK2 (Homo sapiens, UniProt P53671); test: KinomeScan; type: binding; parameters: key: most active is indicated as (++); very little inhibiting effect is indicated as (−−); settings: LMK2
T1 construct: host or cells: T7 phage grown in E. coli host derived from BL21
Method: (§1) Kinase assays: Assays were performed as described in Fabian et al. (2005) Nature Biotechnology, vol. 23, p. 329. Kinase-tagged T7 phage strains were grown in parallel in 24 or 96-well blocks in an E. coli host derived from the BL21 strain. E. coli were grown to log-phase and infected with T7 phage from a frozen stock (multiplicity of infection ˜0.1) and incubated with shaking at 32° C. until lysis (−90 minutes). The lysates were centrifuged and filtered to remove cell debris. […] The liganded beads were blocked with excess biotin and washed with blocking buffer (SeaBlock (Pierce), 1% BSA, 0.05% Tween 20, 1 mM DTT) to remove unbound ligand and to reduce non-specific phage binding.
(§2) Test compounds were prepared as 40× stocks in DMSO and diluted into the aqueous environment. 2.5% DMSO was added to control assays lacking a test compound. All reactions were performed in polystyrene 96-well plates that had been pretreated with blocking buffer in a final volume of 0.04 ml. […] The phage titer in the eluates was measured by quantitative PCR.

ZAP70 = target: T2, ZAP70 (Homo sapiens, UniProt P43403); test: KinomeScan; type: binding; parameters: key: most active is indicated as (++); very little inhibiting effect is indicated as (−−)
T2 construct: host or cells: T7 phage grown in an E. coli host derived from BL21
Method: as §1, §2

STK16 = target: T3, STK16 (Homo sapiens, UniProt O75716); test: KinomeScan; type: binding; parameters: key: most active is indicated as (++); very little inhibiting effect is indicated as (−−)
T3 construct: host or cells: T7 phage grown in E. coli (BL21-derived)
Method: as §1, §2

GSK3B = target: T4, GSK3B (Homo sapiens, UniProt P49841); test: KinomeScan; type: binding; parameters: key: most active is indicated as (++); very little inhibiting effect is indicated as (−−)
T4 construct: host or cells: T7 phage in E. coli host derived from BL21
Method: as §1, §2

SRMS = target: T5, SRMS (Homo sapiens, UniProt Q9H3Y6); test: KinomeScan; type: binding; parameters: key: most active is indicated as (++); very little inhibiting effect is indicated as (−−)
T5 construct: host or cells: T7 phage grown in E. coli (BL21-derived)
Method: as §1, §2

MUSK = target: T6, MUSK (Homo sapiens, UniProt O15146); test: KinomeScan; type: binding; parameters: key: most active is indicated as (++); very little inhibiting effect is indicated as (−−)
T6 construct: host or cells: T7 phage grown in E. coli host derived from BL21
Method: as §1, §2

AKT1 = target: T7, AKT1 (Homo sapiens, UniProt P31749); test: KinomeScan; type: binding; parameters: key: most active is indicated as (++); very little inhibiting effect is indicated as (−−)
T7 construct: host or cells: E. coli (BL21-derived), T7 phage lysate
Method: as §1, §2

BMPR1A = target: T8, BMPR1A (Homo sapiens, UniProt P36894); test: KinomeScan; type: binding; parameters: key: most active is indicated as (++); very little inhibiting effect is indicated as (−−); settings: BMPR^1A
T8 construct: host or cells: E. coli host derived from BL21
Method: as §1, §2

PIK3CA = target: T9, PIK3CA (Homo sapiens, UniProt P42336); test: KinomeScan; type: binding; parameters: key: most active is indicated as (++); very little inhibiting effect is indicated as (−−); settings: P1K3CA
T9 construct: host or cells: E. coli host derived from BL21, infected with T7 phage
Method: as §1, §2

PRKX = target: T10, PRKX (Homo sapiens, UniProt P51817); test: KinomeScan; type: binding; parameters: key: most active is indicated as (++); very little inhibiting effect is indicated as (−−)
T10 construct: host or cells: E. coli host derived from BL21, T7 phage display
Method: as §1, §2

ULK = test: KinomeScan; type: binding; parameters: key: most active is indicated as (++); very little inhibiting effect is indicated as (−−)
RPS6KA = test: KinomeScan; type: binding; parameters: key: most active is indicated as (++); very little inhibiting effect is indicated as (−−)
[3] = tested on: BT474/HTB20 human breast cancer cell line; test: HER2 positive breast cancer xenografts; type: in vivo, SCID mice
[4] = tested on: A549 luciferase expressing cells; test: Lung tissue harvested from nude mice after treatment; type: in vivo; settings: oral/ip routes, various concentrations, FIG. 4
p38 = test: KinomeScan; type: binding; parameters: key: most active is indicated as (++); very little inhibiting effect is indicated as (−−)
80 kinases = test: In vitro kinase profiling study; type: binding; settings: of 80 kinases evaluated
EGFR = EGFR (Homo sapiens, UniProt P00533); test: Western blot analysis of EGFR expression; type: cell-based; parameters: endogenous in cells; host or cells: H1299 or A549 cells; settings: A549 cells, FIG. 1
PKAC = test: KinomeScan; type: binding; parameters: key: most active is indicated as (++); very little inhibiting effect is indicated as (−−)
PCTK = test: KinomeScan; type: binding; parameters: key: most active is indicated as (++); very little inhibiting effect is indicated as (−−)

In the case of C#Cc1cccc(Nc2ncnc3cc(OC)c(OCCCN4CCOCC4)cc23)c1 [NRC-2694, N-(3-ethynylphenyl)-7-methoxy-6-[3-(4-morpholinyl)propoxy]-4-quinazolinamine], the “tumor remission after withdrawing the study treatment” value (H1975 cells) is reported as “Tumor remission was continued”, the “% Ctrl @ 10000 nM” value (FLT3(ITD)) is reported as 0.1 % Ctrl and the “regression of pre-established subcutaneous pancreatic tumors” value ([1]; 20 mg/kg oral) is reported as “did cause the regression of pre-established subcutaneous pancreatic tumors”. For the same compound, the “tumor regression compared with Erlotinib and Gemcitabine” value ([1]; 20 mg/kg oral vs Erlotinib 50 mg/kg oral, Gemcitabine 120 mg/kg i.p, FIG. 9, listed as compound IA) was “superior to that caused by Erlotinib and Gemcitabine individually as well as in combination”, the “tumor regression with addition of Gemcitabine” value ([1]; 20 + 120 mg/kg, oral + ip) was “greater than additive effect” and the tumor regression (A549 human lung tumors; 10 mg/Kg dose) was “complete regression of tumors”. The “superiority in efficacy over erlotinib HCl” value (A549 human lung tumors; 10 mg/Kg vs 100 mg/Kg) was “ten fold superiority in efficacy”, the “tumors at the end of 42 days treatment” value [2] was “No tumors were observed” and the “Kinase Activity Trends” value (YANK) was “(−−)”. The “Kinase Activity Trends” value (LIMK2) was “(−−)”, the “Kinase Activity Trends” value (ZAP70) was “(−−)” and the “Kinase Activity Trends” value (STK16) was “(−−)”. For the same compound, the “Kinase Activity Trends” value (GSK3B) was “(−−)”, the “Kinase Activity Trends” value (SRMS) was “(−−)” and the “Kinase Activity Trends” value (MUSK) was “(−−)”. The “Kinase Activity Trends” value (AKT1) was “(−−)”, the “Kinase Activity Trends” value (BMPR1A) was “(−−)” and the “Kinase Activity Trends” value (PIK3CA) was “(−−)”. For the same compound, the “Kinase Activity Trends” value (PRKX) was “(−−)”, the “Kinase Activity Trends” value (ULK) was “(−−)” and the “Kinase Activity Trends” value (RPS6KA) was “(−−)”. The anti tumor activity ([3]; 10, 20 and 40 mg/kg once a day, oral) was “dose dependent increase in anti tumor activity”, the “tumor regression compared with Lapatinib” value ([3]; vs Lapatinib 30 and 100 mg/kg twice a day, FIG. 11) was “superior to that of Lapatinib treated animals” and the “residual tumors in harvested lungs” value [4] was “Complete regression of tumors”. For the same compound, the “Kinase Activity Trends” value (p38) was “(−−)”, the “number of kinases significantly inhibited” value (80 kinases) was 15 and the EGFR levels (EGFR) was “dose dependent decrease in EGFR levels”. For the same compound, the “Kinase Activity Trends” value (PKAC) was “(−−)” and the “Kinase Activity Trends” value (PCTK) was “(−−)”.
